Library screening results

Protein sequences, listed by entry. Tags and fused reporters are not part of them.
UniProt E9BF75, entry or part of it: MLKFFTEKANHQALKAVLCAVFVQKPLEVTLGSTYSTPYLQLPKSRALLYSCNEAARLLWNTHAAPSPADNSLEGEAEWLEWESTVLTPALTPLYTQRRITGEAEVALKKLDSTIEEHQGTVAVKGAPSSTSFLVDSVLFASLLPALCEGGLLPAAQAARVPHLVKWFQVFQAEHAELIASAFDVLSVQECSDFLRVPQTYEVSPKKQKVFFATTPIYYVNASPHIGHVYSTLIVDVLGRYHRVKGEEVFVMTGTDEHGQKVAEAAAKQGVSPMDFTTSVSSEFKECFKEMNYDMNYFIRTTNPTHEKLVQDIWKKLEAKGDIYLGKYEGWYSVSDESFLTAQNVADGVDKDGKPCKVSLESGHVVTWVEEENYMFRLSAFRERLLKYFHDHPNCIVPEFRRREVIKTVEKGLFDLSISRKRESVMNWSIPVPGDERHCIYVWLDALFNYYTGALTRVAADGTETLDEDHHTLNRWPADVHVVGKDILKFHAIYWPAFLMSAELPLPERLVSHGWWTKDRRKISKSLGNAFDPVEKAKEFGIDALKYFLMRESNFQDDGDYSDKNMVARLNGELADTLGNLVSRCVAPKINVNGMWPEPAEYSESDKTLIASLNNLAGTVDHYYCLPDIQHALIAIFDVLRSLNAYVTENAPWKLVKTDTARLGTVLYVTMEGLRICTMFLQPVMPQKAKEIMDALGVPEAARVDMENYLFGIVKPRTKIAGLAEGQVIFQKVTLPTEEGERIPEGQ

LdMetRS: 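Methionyl-tRNA synthetase (putative), Leishmania donovani (UniProt E9BF75). Primary screen of methionyl-tRNA synthetase; the read-out is not stated. The test concentration is not given. Values are per cent inhibition. Of about 68,000 compounds tested this way, about 24 (0.035%) reached 50% or more in at least one test.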
Mtb heat-shock: 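Assay on Mycobacterium tuberculosis, filed only as a heat shock assay from Cornell; the read-out is not stated. The concentration is filed as 10 mM, unlikely as a test dose, so the dose is not known. Direction is inferred from retests: higher values go with stronger inhibition. Size under these conditions: about 69,000 compounds, about 930 of them at 50% or above in at least one test.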

Results are percentages, as filed. The controls that fix the scale are not given in the record; negative values are as filed. The compounds are a random part of those screened. A dash means the value is not listed here; it may have been measured.

structure,LdMetRS,Mtb heat-shock
Cc1nc(N(C)C)nc(N2CCC3(CC2)CNC(=O)O3)c1C,21.49%,-5.638%
O=c1[nH]c(-c2ccncc2)ncc1-c1ccnc(NC2CC2)n1,2.67%,-34.63%
CN(Cc1nc(-c2ccccc2)no1)C(=O)CNS(C)(=O)=O,12.15%,12.57%
O=C(c1cc(C2CC2)[nH]n1)N1CCN(Cc2ccc(Cl)cc2)CC1,10%,-20.78%
O=C(Nc1ccccc1F)c1nn(C2CCS(=O)(=O)C2)c2c1CCCC2 (configuration not stated),11.9%,10.2%
CCc1nnc(SC2CCN(c3ccccc3F)C2=O)n1C (configuration not stated),15.54%,-3.263%
N[C@@H](Cc1c[nH]cn1)C(=O)N1CCC(Oc2ccc(Cl)cc2)CC1,16.51%,-0.245%
O=C(O)c1ccccc1-c1ccc(CNC(=O)C2CCOCC2)cc1,5.901%,-1.891%
Cc1nc(C)c(C(=O)Nc2cnn(CC(=O)NC3CCCC3)c2)s1,11.06%,-25.58%
Cc1ccoc1C(=O)N1CCn2nnc(COc3cccnc3)c2C1.O=C(O)C(F)(F)F,-,-27.69%
O=C(O)[C@@H]1CN(CC(=O)N2CCCCC2)C[C@H]1c1ccc(F)cc1,11.19%,3.151%
CCOc1cc(C(=O)O)cc(-c2ccccc2)c1OC,0%,5.153%
CC(C)CN1C(=O)CO[C@@H]2CN(C(=O)N(C)C)C[C@H]21,3.114%,-
CCC(=O)NCc1ccccc1Cn1ccnc1,10.37%,-0.1975%
Cc1ccccc1CN1CCCN(C2CCOC2=O)CC1 (configuration not stated),14.38%,29.78%
O=C(Cc1csc(-c2ccco2)n1)N1CCN(c2cnccn2)CC1,18.06%,5.555%
Cc1cc(C(=O)Nc2ccc(-c3nnc(N(C)C)o3)cc2)oc1C,5.943%,2.573%
CC[C@@H]1N(Cc2ccsc2)CCC[C@]12CCC(=O)N2CCOC.O=C(O)C(F)(F)F,-,-11.94%
O=C(NC1CCCCC1)c1ccc(Oc2ccc3nncn3n2)cc1,15.59%,-3.989%
CCCC(NC(=O)c1ccc(C)cc1C)c1nnn[nH]1 (configuration not stated),7.427%,-8.679%
CC(C)N1CCC2(CC1)C(=O)N(c1cccnc1)c1ccc(F)cc12,12.2%,-
CS(=O)(=O)c1nnc(NC(=O)CCc2cccc(Cl)c2)[nH]1,1.955%,-18.57%
CN1CCOC(CNCc2cccc(OC(F)(F)F)c2)C1 (configuration not stated),16.67%,-1.566%
Cc1nc(CO[C@H]2CN(C(=O)c3cnoc3C)[C@@H]3COC[C@H]23)cs1,10.64%,-
O=C(O)C1(Oc2ccc3ccccc3c2)CCN(c2ncccn2)CC1,20.74%,5.295%
COc1ccc(-c2cc(C3CCNCC3)ccn2)cc1.Cl,-,-16.31%
Cc1ccnn1CCC(=O)N1CCCC2(C1)NC(=O)c1ccccc1O2 (configuration not stated),13.35%,-0.9911%
Cc1ccccc1OC1(C(=O)O)CCN(C(=O)CCc2ccco2)CC1,0.9464%,5.623%
Cc1cc(-c2cnc(N3CCNC(=O)C3)nc2-c2cccnc2C)on1,16.38%,-29.16%
CN(C)c1ncnc2c1CCN(Cc1nccs1)CC2.O=C(O)C(F)(F)F,-,-12.59%
CN(C)c1ncccc1C(=O)N1CCCN(c2cccnn2)CC1,5.155%,-8.944%
c1ccc(-c2cc(CN3C[C@H]4CC[C@H]3C4)on2)cc1,1.818%,-
O=C(COc1cccc2c1CCC2=O)NCCOc1ccccc1,4.225%,-23.6%
CC(C(=O)Nc1ccnn1C(C)C)N1CCN(Cc2ccon2)CC1 (configuration not stated),-,-14.01%
CC(NC(=O)NCc1ccoc1)c1ccc2c(c1)CCC(=O)N2 (configuration not stated),3.644%,1.531%
O=C(Cc1csc(-c2ccco2)n1)N1CCN(c2ccccc2O)CC1,24.93%,-12.97%
O=C(c1cc(F)ccc1O)N1CCN(C2CCSC2)CC1 (configuration not stated),16.42%,-21.11%
OC[C@H]1CCCN1c1nccc(-c2cncnc2C2CCCCC2)n1,12.38%,5.036%
CCn1ccnc1CN1CCN(c2cc(C)nc(C3CCCN3)c2)CC1 (configuration not stated),15.22%,-
CC(C)c1cc(C(=O)N2CCN(Cc3ccc(C#N)cc3)CC2)n[nH]1,10.68%,24.86%
O=C(O)c1cc(S(=O)(=O)Nc2cc(Cl)ccc2F)cc2c1OCCO2,11.75%,-10.76%
CCc1cnc(NCCSc2cnn[nH]2)nc1,0.2674%,0.05636%
CN1CCOC[C@H]1c1nc(-c2cccc(F)c2)c[nH]1,4.396%,-15.89%
CCSCCNc1nc(-c2ccccn2)nc2c1c(C)nn2C,6.964%,102%
CN(C)c1ncc(I)c(C2CCCN2S(C)(=O)=O)n1 (configuration not stated),0.9524%,-23.5%
Cn1cnc2c(-c3cccnc3)nc(C3CCNCC3)cc21,-0.5602%,-
CN(Cc1cccnc1)[C@@H]1CN(C(=O)c2ccno2)[C@@H]2CCCO[C@H]12,16.02%,-
COc1cc(N2C[C@@H]3CC[C@H](C2)N(CC2CCC2)C3=O)ncn1,16.88%,-
COc1ccc(O[C@H]2COCCN(C(=O)c3ccno3)C2)cc1,12.54%,-13.13%
Cc1ccc(-n2nnc(C(=O)O)c2C)c(C)c1,3.403%,-4.851%
CCCNS(=O)(=O)c1cc2c3c(c1)c(C)cc(=O)n3CCC2,12.73%,13.98%
CCCNC(=O)c1sc(Nc2ccc(Cl)cn2)nc1C,9.544%,1.477%
O=C(NC[C@H]1OC[C@@H](NCc2ccccn2)[C@@H]1O)N1CCOCC1,9.153%,-3.09%
CC(=O)N1CCN(C(=O)c2snnc2C)[C@H]2CS(=O)(=O)C[C@H]21,16.88%,-
O=C1CCCN1CC1CCCCN1C(=O)Nc1cccnc1 (configuration not stated),14.64%,-1.039%
COc1ccc(CC2CN(C(=O)c3ocnc3C)CCO2)cc1 (configuration not stated),0.7194%,-47.56%
Cc1nc(COC[C@@H]2CCC[C@@]23CNCCO3)cs1,3.863%,-
COc1cccc(C(C(=O)O)N2CCCN(C3CCCC3)CC2)c1OC (configuration not stated),-,-26.6%
CC1=C[C@@H](CN2CCC(CO)CC2)[C@H](C(C)C)C[C@H]1Cc1nnc(C)o1,6.015%,0.5853%
[H][C@@]12CCC(=O)N(CC(C)C)[C@]1([H])CCN(C(=O)Cn1ccc(=O)cc1)C2,-,-20.77%
CCN(CC)S(=O)(=O)c1csc(C(=O)N2CCC(C(N)=O)CC2)c1,1.282%,10.48%
CC(NS(=O)(=O)N(C)C)c1cccc(-n2cccn2)c1 (configuration not stated),2.094%,0.4019%
O=C(Cc1ccc2c(c1)OCCO2)NC1CCCC1,3.644%,-6.006%
CN(C)Cc1ccc(C2CCCCN2C(=O)c2cccc(CO)n2)cc1 (configuration not stated),7.407%,-15.41%
CC(C)c1nc2c(n1C)CCN(CC(=O)NCc1ccccn1)C2,0.3546%,12.2%
CN(C)c1cncc(-c2ccnc3c2ccn3C)n1,19.31%,-19.13%
CC(CN1CCOCC1)OC(=O)c1ccccc1I (configuration not stated),5.666%,-
CC[C@H](N)C(=O)Nc1nn(CC(F)(F)F)c2cc(OC(C)C)ccc12,24.16%,-6.259%
O=C(NCC1CCOC1)c1cc(-c2ccc(Cl)cc2)n[nH]1 (configuration not stated),3.951%,-8.764%
CCOc1ccccc1C(CC(=O)Nc1ccccc1)NC(C)=O (configuration not stated),11.02%,4.386%
CC(COc1ccccc1)NS(C)(=O)=O (configuration not stated),8.696%,10.35%

Once more, the final 7:

CC(C)c1nc2c(n1C)CCN(CC(=O)NCc1ccccn1)C2 gave LdMetRS: 0.3546%; Mtb heat-shock: 12.2%.
CN(C)c1cncc(-c2ccnc3c2ccn3C)n1 gave LdMetRS: 19.31%; Mtb heat-shock: -19.13%.
CC(CN1CCOCC1)OC(=O)c1ccccc1I (configuration not stated) gave LdMetRS: 5.666%.
CC[C@H](N)C(=O)Nc1nn(CC(F)(F)F)c2cc(OC(C)C)ccc12 gave LdMetRS: 24.16%; Mtb heat-shock: -6.259%.
O=C(NCC1CCOC1)c1cc(-c2ccc(Cl)cc2)n[nH]1 (configuration not stated) gave LdMetRS: 3.951%; Mtb heat-shock: -8.764%.
CCOc1ccccc1C(CC(=O)Nc1ccccc1)NC(C)=O (configuration not stated) gave LdMetRS: 11.02%; Mtb heat-shock: 4.386%.
CC(COc1ccccc1)NS(C)(=O)=O (configuration not stated) gave LdMetRS: 8.696%; Mtb heat-shock: 10.35%.

The values are deposited in ChEMBL (CHEMBL3988442, “University of Dundee, Small-Polar-MMV Screening Library” (2021)).